Measurements taken from PubChem BioAssay AID588590 (National Center for Advancing Translational Sciences (NCATS), 2011).
“And” between values parts separate entries of the source, which are not always exact repeats. Equal values may be shown once. Screen size: about 390,000 compounds; about 4,000 (1%) were called active. Inconclusive means that the source gave no clear call. Such entries were picked first, then a sample of the others. Calls follow the shape of the dose curve; as a rule, active = well fitted inhibition curve with a large enough effect; inconclusive = small, poorly fitted or top-dose-only effect, or another doubt; inactive = no such curve, though single readings can be large or run the other way. A potency beside an inconclusive call is a rough fit, not a confirmed value.
Potency is read from the fitted curve at half-maximal effect.

Protein sequences, listed by entry. Tags and fused reporters are not part of them. Lines headed by an entry give the natural chain unless they say otherwise; changes in a name come on top.
UniProt Q9UNA4: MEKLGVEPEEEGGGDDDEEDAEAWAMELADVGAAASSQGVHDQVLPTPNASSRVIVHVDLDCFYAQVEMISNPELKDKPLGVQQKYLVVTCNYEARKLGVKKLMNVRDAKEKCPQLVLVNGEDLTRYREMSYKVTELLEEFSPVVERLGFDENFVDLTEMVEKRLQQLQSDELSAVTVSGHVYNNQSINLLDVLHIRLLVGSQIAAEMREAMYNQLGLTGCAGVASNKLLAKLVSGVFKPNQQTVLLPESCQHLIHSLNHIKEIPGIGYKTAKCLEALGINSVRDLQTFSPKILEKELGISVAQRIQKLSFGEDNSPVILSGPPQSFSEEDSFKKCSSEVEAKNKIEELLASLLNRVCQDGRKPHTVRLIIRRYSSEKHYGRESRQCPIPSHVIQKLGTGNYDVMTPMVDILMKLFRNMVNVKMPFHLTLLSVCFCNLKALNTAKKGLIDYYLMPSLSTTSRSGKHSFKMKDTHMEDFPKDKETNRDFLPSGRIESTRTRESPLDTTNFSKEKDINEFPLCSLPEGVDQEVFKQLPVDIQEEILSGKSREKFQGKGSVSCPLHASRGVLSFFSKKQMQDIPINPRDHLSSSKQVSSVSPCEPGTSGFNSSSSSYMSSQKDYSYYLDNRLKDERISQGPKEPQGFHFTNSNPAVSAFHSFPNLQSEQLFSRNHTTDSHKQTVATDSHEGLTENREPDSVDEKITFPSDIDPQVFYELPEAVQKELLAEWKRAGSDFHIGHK

The compounds below were run against DNA polymerase iota (Homo sapiens) (UniProt Q9UNA4) (assay: qHTS for Inhibitors of Polymerase Iota). Details: Pol iota fluorescent replication assay, 10 min; series mostly up to 115 µM.
Outline: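 Fluorescent replication assay read twice, at 0 min and 10 min after adding 50 nM (final) substrate. Enzyme (10 nM) and compounds were first incubated 15 min at room temperature; enzyme-free buffer wells were negative controls.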
With `O=C(COc1ccc(Cl)cc1)NCC(c1cccs1)S(=O)(=O)c1ccc(F)cc1` (centres undefined) the Potency was “inactive”.
For `CC(=O)Nc1ccc(NC(=O)C(C)OC(=O)/C(C#N)=C/c2ccc(N(C)C)cc2)cc1` (centres undefined), the Potency was inconclusive: 63.1 µM [inhibitor, partial curve, poor fit].
For `Cn1c(=O)[nH]c(=O)c2c1nc(SCC(=O)O)n2CCc1ccccc1`, the Potency was “inactive”.
For `COc1ccc(-c2nc3sc(CCNC(=O)C(=O)Nc4ccc(C)c(C)c4)c(C)n3n2)cc1`, the Potency was inconclusive: 89.1 µM [inhibitor, partial curve, poor fit].
`CCOC(=O)C1=C(COC(=O)COc2ccccc2C(C)C)NC(=O)NC1C` (centres undefined) was tested, and the Potency was “inactive”.
For `CCc1ccc(OC(=O)c2cccnc2)cc1`, the Potency was inconclusive: 50.1 µM [inhibitor, partial curve, poor fit].
`Cc1nnc(NC(=O)CSC2=NN3CCCC(=O)N=C3S2)s1` was tested, and the Potency was inconclusive: 39.8 µM [inhibitor, partial curve].
With `CCCCCC(O)(c1ccc(OCC)cc1)C(CN1CCOCC1)c1ccccc1` (centres undefined) the Potency was inconclusive: 89.1 µM [inhibitor, partial curve, poor fit].
In the case of `COc1cc(NC(=O)CN2CCCN(S(=O)(=O)c3ccc(F)cc3)CC2)cc(OC)c1`, the Potency is reported as “inactive”.
With `C=CCc1cccc2cc(C(=O)Nc3ccc(S(=O)(=O)Nc4nnc(CC)s4)cc3)c(=O)oc12` the Potency was active: 8.91 µM.
In the case of `C=CCc1cccc2cc(-c3nc4ccc(C(=O)O)cc4[nH]3)c(=O)oc12`, the Potency is reported as inconclusive: 56.2 µM [inhibitor, partial curve, poor fit].
In the case of `CCCCn1c(CCC(=O)O)nc2cc(S(=O)(=O)N(CC)CC)ccc21`, the Potency is reported as inconclusive: 100 µM [inhibitor, single point].
With `c1ncc2snnc2n1` the Potency was inconclusive: 89.1 µM [inhibitor, single point].
For `CCOc1ccc(NC(=O)Nc2cc3c(cc2N2CCCCC2)n(C)c(=O)n3C)cc1`, the Potency was “inactive”.
With `Cc1ccc(CNC(=O)Cn2cccc2)cc1` the Potency was inconclusive: 8.91 µM [inhibitor, partial curve].
`Cc1ccc(C(Sc2ccccc2)C(Cn2cncn2)C(=O)c2ccccc2)cc1` (centres undefined) was tested, and the Potency was inconclusive: 25.1 µM [inhibitor, single point].
`O=C(O)c1ccc(Nc2nc(-c3ccc([N+](=O)[O-])cc3)nc3ccccc23)cc1` was tested, and the Potency was inconclusive: 25.1 µM [inhibitor, full curve, poor fit].
In the case of `CN1C(=O)C(O)(CC(=O)/C=C/c2ccco2)c2cc(Br)ccc21` (centres undefined), the Potency is reported as inconclusive: 25.1 µM [inhibitor, full curve].
With `O=C(Nc1nc(-c2ccco2)c(-c2ccco2)s1)C1CCC1` the Potency was inconclusive: 20 µM [inhibitor, full curve].
With `CN(C)C(CNS(=O)(=O)c1ccc(Br)cc1)c1cccnc1` (centres undefined) the Potency was inconclusive: 22.4 µM [inhibitor, single point].
With `O=C(/C=C/c1ccncc1)c1ccc2c(c1)OCCO2` the Potency was inconclusive: 20 µM [inhibitor, partial curve, poor fit].
`CCOc1ccc(Nc2nc(C)c(NC(=O)c3cccc(F)c3)c(Nc3ccc(OCC)cc3)n2)cc1` was tested, and the Potency was inconclusive: 89.1 µM [inhibitor, single point].
For `CCc1ccc(NC(=O)C2CCN(S(=O)(=O)c3cccc(-c4noc(C)n4)c3)CC2)cc1`, the Potency was inconclusive: 89.1 µM [inhibitor, single point].
With `O=C(CCN1C(=O)/C(=C/c2ccccc2Cl)SC1=S)NNC(=O)c1ccccc1O` the Potency was inconclusive: 14.1 µM [inhibitor, partial curve, poor fit].
In the case of `CC(C)c1ccc(NC(=O)C2CCCN2S(=O)(=O)c2ccc3nc(-c4ccccc4)[nH]c3c2)cc1` (centres undefined), the Potency is reported as inconclusive: 89.1 µM [inhibitor, single point].
In the case of `CCCc1nnc(NC(=O)Cc2coc3c(C)c(C)ccc23)s1`, the Potency is reported as “inactive”.
`Cc1cccc(OCC(=O)Nc2ccc3c(c2)nc(CN2CCCCC2)n3C)c1` was tested, and the Potency was inconclusive: 79.4 µM [inhibitor, partial curve] and inconclusive: 39.8 µM [inhibitor, partial curve, poor fit].
For `O=C(CCl)N1N=C(c2cccs2)CC1c1ccco1` (centres undefined), the Potency was “inactive”.
In the case of `O=S(=O)(c1ccc(-c2csc(=Nc3ccc(F)cc3)n2CCCCCCO)cc1)N1CCCC1`, the Potency is reported as inconclusive: 79.4 µM [inhibitor, single point].
In the case of `CCOCCCn1c(SCC(=O)Nc2ccc(CC)cc2)nc2ccccc2c1=O`, the Potency is reported as “inactive”.
In the case of `Cc1ccc(C)c(/C=N/Nc2nc3ccccc3c(=O)n2O)c1`, the Potency is reported as inconclusive: 31.6 µM [inhibitor, single point].
In the case of `COCC(C)NC(=O)CSc1nc2ccccc2n1CCc1ccccc1` (centres undefined), the Potency is reported as inconclusive: 28.2 µM [inhibitor, partial curve, poor fit].
For `CC1(C)CC(N=c2cc(-c3ccccc3)oc3ccc(Cl)cc23)CC(C)(C)N1`, the Potency was inconclusive: 12.6 µM [inhibitor, partial curve, poor fit].
`C#CCOc1ccc(Cl)cc1/C=C1/C(=O)ON=C1C` was tested, and the Potency was “inactive”.
In the case of `CCOc1ccc2noc3c2c1C(=O)c1ccccc1-3`, the Potency is reported as “inactive”.
In the case of `Cc1ccc2oc(-c3cc(NC(=O)CC(C)C)ccc3Cl)nc2c1`, the Potency is reported as inconclusive: 89.1 µM [inhibitor, single point].
For `CCCc1cc(=O)oc2c(C)c3c(cc12)CN(CCc1ccc(Cl)cc1)CO3`, the Potency was inconclusive: 89.1 µM [inhibitor, single point].
With `O=c1c(-c2ccc(Cl)cc2)coc2c(CN3CCCCC3)c(O)ccc12` the Potency was active: 31.6 µM.
With `CCOC(=O)C1CCN(C(=O)c2c(C)nn(-c3ccc(F)cc3)c2-n2cccc2)CC1` the Potency was “inactive”.
`COc1cccc(Nc2nc3ccccc3nc2NS(=O)(=O)c2cccs2)c1` was tested, and the Potency was inconclusive: 17.8 µM [inhibitor, full curve, poor fit].
For `O=[N+]([O-])c1ccc(-c2nn(-c3ccccc3)cc2/C=N/n2c(-c3ccncc3)n[nH]c2=S)cc1`, the Potency was “inactive”.
With `O=C(C[C@H]1C[C@H](C(=O)N2CCOCC2)[C@@]2(CCC3CCCC3)c3[nH]c4cc(-c5ccco5)ccc4c3CCN2C1=O)NCc1cccc(C(F)(F)F)c1` the Potency was inconclusive: 12.6 µM [inhibitor, partial curve, poor fit].
For `O=C(CSc1nnnn1C1CCCC1)Nc1ccc2c(c1)OCCO2`, the Potency was inconclusive: 89.1 µM [inhibitor, single point].
For `COc1ccc(Cn2c(=O)[nH]c3cc(OC)c(OC)cc3c2=O)cc1`, the Potency was inconclusive: 8.91 µM [inhibitor, partial curve, poor fit].
For `Fc1ccc2[nH]c3c(N4CCN(c5ccccc5)CC4)ncnc3c2c1`, the Potency was inconclusive: 20 µM [inhibitor, partial curve, poor fit].
In the case of `O=C(NCc1ccco1)c1cc2cc3ccc(Cl)cc3nc2o1`, the Potency is reported as inconclusive: 15.8 µM [inhibitor, partial curve, poor fit].
In the case of `Cc1nccc(-c2cccc(NC(=O)c3ccccc3Cl)c2)n1`, the Potency is reported as inconclusive: 0.282 µM [inhibitor, full curve, poor fit].
In the case of `CCOc1ccc(NC(=O)CNC(=O)c2nn(-c3ccc(OC)c(OC)c3)c(=O)c3ccccc23)cc1`, the Potency is reported as inconclusive: 10 µM [inhibitor, full curve].
In the case of `COc1ccc(C(=O)OCC(=O)c2ccc(C)c(S(=O)(=O)N3CCOCC3)c2)cc1OC`, the Potency is reported as inconclusive: 89.1 µM [inhibitor, single point].
For `CCOc1ccc(NC(=O)c2cc3ccccc3cc2O)cc1`, the Potency was inconclusive: 39.8 µM [inhibitor, full curve].
`CC(C)COc1ccc(C(=O)Nc2nnc(S(=O)(=O)N(C)Cc3ccco3)s2)cc1` was tested, and the Potency was “inactive”.
In the case of `O=C(Nc1cccnc1)c1cccc(-c2cc3ccccc3oc2=O)c1`, the Potency is reported as “inactive”.
`CN1C(C(=O)NCc2ccco2)CC2Cn3c(nc4ccccc43)C21` (centres undefined) was tested, and the Potency was inconclusive: 31.6 µM [inhibitor, single point].
With `CC(C)CC(=O)NC(=S)Nc1ccccc1C(=O)Nc1ccccc1` the Potency was inconclusive: 79.4 µM [inhibitor, single point].
`Cc1ccc(O)c(N=Cc2cc(Cc3ccccc3)cc([N+](=O)[O-])c2O)c1` was tested, and the Potency was inconclusive: 28.2 µM [inhibitor, single point].
In the case of `c1ccc(CNc2c(-c3cccc(SC4CCCCC4)c3)nc3ccccn23)cc1`, the Potency is reported as inconclusive: 15.8 µM [inhibitor, full curve, poor fit].
For `CCN(CC)C(=O)CC(c1ccc(OC)cc1)c1c(OC)cc(OC)c2ccc(=O)oc12` (centres undefined), the Potency was active: 70.8 µM and active: 79.4 µM.
For `O=C(COC(=O)c1cccc(S(=O)(=O)N2CCc3ccccc3C2)c1)NCc1ccco1`, the Potency was “inactive”.
In the case of `CO/N=C(/CS(=O)(=O)c1ccc(Br)cc1)c1ccc(OC)cc1`, the Potency is reported as inconclusive: 89.1 µM [inhibitor, single point].
`COCCOC(=O)c1c(C)nc(SCC(=O)Nc2ccc(OC)cc2)c(C#N)c1-c1ccco1` was tested, and the Potency was inconclusive: 3.55 µM [inhibitor, full curve, poor fit].
For `NC1=C(Cl)C(=O)c2ccccc2C1=O`, the Potency was “inactive”.
In the case of `O=C(/C=C/c1cccs1)N1CCC2(CC1)Oc1ccc(Cl)cc1C(=O)C21CC(c2ccc(Cl)cc2)=NO1` (centres undefined), the Potency is reported as inconclusive: 3.16 µM [inhibitor, full curve].
`O=C(CCc1nnc2ccc(NCc3ccco3)nn12)N1CCN(c2ccc(F)cc2)CC1` was tested, and the Potency was inconclusive: 56.2 µM [inhibitor, partial curve].
For `CCOCCCNC(=O)c1ccc(N2CCCC2)c(NS(=O)(=O)c2ccc(C)cc2)c1`, the Potency was inconclusive: 35.5 µM [inhibitor, single point].
